Laboratory results: PubChem BioAssay AID1224830 (NIAID, 2016)
This is an unselected part of about 18,000 deposited reagents. About 2,900 of them (16%) were called active. 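Calls are made per well; low scores hint the gene aids the LPS response, high scores that it dampens it.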 Repeated entries: four replicate wells of each siRNA pool.

Aim: 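Host factors that control LPS-induced TNF expression in human macrophages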 (primary screen)
Cells: human THP-1 monocytic leukaemia cells, TNF dual-luciferase reporter clone, PMA-differentiated to macrophage-like cells
Reagents: siRNA pool against human genes, 50 nM
Time to read-out: LPS for 4 h, given about 3 days after siRNA transfection
Treatment: bacterial LPS (TLR4 ligand), 10 ng/ml
Read-out: 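Ratio of firefly to renilla light, scaled to the plate median and expressed as a robust z-score per replicate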
Direction: TNF reporter robust z-score: higher = stronger TNF reporter response to LPS
Hit rule: 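Each well counts as active if its z-score is over 2.8 or under -1.5; controls are left without a call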

target gene	TNF reporter robust z-score	outcome
KRT4	-0.6	inactive
KRT4	-0.07	inactive
KRT4	-0.97	inactive
KRT4	-0.32	inactive
CFAP77	-0.08	inactive
CFAP77	0	inactive
CFAP77	-0.69	inactive
CFAP77	-0.23	inactive
WDR6	0.04	inactive
WDR6	0.66	inactive
WDR6	-0.72	inactive
WDR6	1.06	inactive
KLHL14	-0.95	inactive
KLHL14	-0.2	inactive
KLHL14	0.14	inactive
KLHL14	-0.59	inactive
EZH1	-1.61	active
EZH1	-0.91	inactive
EZH1	0.05	inactive
EZH1	-0.61	inactive
PDE6H	-1.36	inactive
PDE6H	-1.4	inactive
PDE6H	-1.12	inactive
PDE6H	-1.51	active
DCN	-0.14	inactive
DCN	0	inactive
DCN	-0.35	inactive
DCN	0.56	inactive
PRDX6	-0.57	inactive
PRDX6	1.29	inactive
PRDX6	7.71	active
PRDX6	0.23	inactive
TMED9	-0.35	inactive
TMED9	0.13	inactive
TMED9	-0.42	inactive
TMED9	-0.46	inactive
IREB2	0.95	inactive
IREB2	0.52	inactive
IREB2	0.67	inactive
IREB2	0.76	inactive
HERC3	0.18	inactive
HERC3	1.43	inactive
HERC3	-0.29	inactive
HERC3	4.12	active
TTC5	0.59	inactive
TTC5	-0.27	inactive
TTC5	1.34	inactive
TTC5	0.1	inactive
FNDC9	-0.51	inactive
FNDC9	-0.68	inactive
FNDC9	-0.78	inactive
FNDC9	-0.45	inactive
ARL4D	-0.81	inactive
ARL4D	-0.36	inactive
ARL4D	-0.12	inactive
ARL4D	0.08	inactive
TBCCD1	-0.84	inactive
TBCCD1	-0.72	inactive
TBCCD1	-1.06	inactive
TBCCD1	-1.22	inactive
CLEC6A	0.87	inactive
CLEC6A	-0.04	inactive
CLEC6A	-0.48	inactive
CLEC6A	-0.33	inactive
TGM2	-0.68	inactive
TGM2	0.37	inactive
TGM2	1.2	inactive
TGM2	-1.02	inactive
MYRIP	0.12	inactive
MYRIP	-0.72	inactive
MYRIP	0.24	inactive
MYRIP	-0.45	inactive
SLC34A1	1.46	inactive
SLC34A1	1.08	inactive
SLC34A1	1.26	inactive
SLC34A1	0.95	inactive
AGFG2	0.76	inactive
AGFG2	0.9	inactive
AGFG2	1.86	inactive
AGFG2	2.13	inactive
ZNF8	-0.18	inactive
ZNF8	-0.64	inactive
ZNF8	-0.34	inactive
ZNF8	-0.55	inactive
CYP2W1	-1.05	inactive
CYP2W1	-1.39	inactive
CYP2W1	-0.51	inactive
CYP2W1	-0.89	inactive
VCPIP1	-0.06	inactive
VCPIP1	0.17	inactive
VCPIP1	-0.38	inactive
VCPIP1	0.06	inactive
ABRAXAS2	0.95	inactive
ABRAXAS2	1.27	inactive
ABRAXAS2	-0.98	inactive
ABRAXAS2	-0.68	inactive
PTCH1	-0.28	inactive
PTCH1	0.02	inactive
PTCH1	-0.17	inactive
PTCH1	1.2	inactive
OR56A1	-0.56	inactive
OR56A1	-0.79	inactive
OR56A1	0	inactive
NOPCHAP1	0.07	inactive
NOPCHAP1	0.01	inactive
NOPCHAP1	0.1	inactive
NOPCHAP1	0.59	inactive
SULT2A1	-0.04	inactive
SULT2A1	0.2	inactive
SULT2A1	0.1	inactive
SULT2A1	0.01	inactive
